Results are given in words; binding and its absence hold for the method and conditions named. In cells and extracts the contact can be indirect. Where a sequence is shown, tags or fusion partners need not be part of it.

Protein sequences, listed by entry. Tags and fused reporters are not part of them.
UniProt Q86UU1: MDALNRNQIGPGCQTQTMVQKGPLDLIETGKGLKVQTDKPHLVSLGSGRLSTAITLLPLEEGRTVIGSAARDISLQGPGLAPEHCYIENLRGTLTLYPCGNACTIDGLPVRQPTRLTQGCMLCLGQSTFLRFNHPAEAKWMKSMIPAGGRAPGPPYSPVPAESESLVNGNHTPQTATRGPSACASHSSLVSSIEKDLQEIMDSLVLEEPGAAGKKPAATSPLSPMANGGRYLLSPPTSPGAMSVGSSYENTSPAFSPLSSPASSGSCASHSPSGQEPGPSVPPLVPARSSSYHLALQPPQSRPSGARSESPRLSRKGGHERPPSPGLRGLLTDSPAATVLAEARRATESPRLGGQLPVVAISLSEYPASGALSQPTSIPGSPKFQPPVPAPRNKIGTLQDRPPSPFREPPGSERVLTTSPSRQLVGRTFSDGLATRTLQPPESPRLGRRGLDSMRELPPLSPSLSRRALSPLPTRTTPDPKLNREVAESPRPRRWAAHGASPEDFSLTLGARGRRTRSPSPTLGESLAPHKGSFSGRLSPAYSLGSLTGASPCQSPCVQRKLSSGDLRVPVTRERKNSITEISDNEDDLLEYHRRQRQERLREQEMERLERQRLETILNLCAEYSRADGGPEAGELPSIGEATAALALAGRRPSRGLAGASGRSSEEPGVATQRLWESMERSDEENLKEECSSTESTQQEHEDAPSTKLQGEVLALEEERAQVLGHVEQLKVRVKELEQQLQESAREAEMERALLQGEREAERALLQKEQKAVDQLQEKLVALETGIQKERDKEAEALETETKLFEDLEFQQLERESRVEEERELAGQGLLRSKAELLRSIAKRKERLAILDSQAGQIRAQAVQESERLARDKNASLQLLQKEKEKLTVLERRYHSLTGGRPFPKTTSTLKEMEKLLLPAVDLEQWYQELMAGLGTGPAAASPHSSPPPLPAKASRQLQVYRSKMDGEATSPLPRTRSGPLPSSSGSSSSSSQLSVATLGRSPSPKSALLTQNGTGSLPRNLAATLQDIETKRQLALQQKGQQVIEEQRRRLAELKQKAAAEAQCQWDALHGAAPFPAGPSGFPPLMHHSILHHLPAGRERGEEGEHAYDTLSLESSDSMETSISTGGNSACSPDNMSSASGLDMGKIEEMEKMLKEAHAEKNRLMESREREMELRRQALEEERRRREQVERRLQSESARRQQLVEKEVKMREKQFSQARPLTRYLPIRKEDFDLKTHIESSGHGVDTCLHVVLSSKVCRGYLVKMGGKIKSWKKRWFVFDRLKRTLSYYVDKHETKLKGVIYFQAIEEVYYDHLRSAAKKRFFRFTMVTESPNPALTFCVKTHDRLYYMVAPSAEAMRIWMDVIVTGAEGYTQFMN

The experiment concerns the target T1, FLAG-PRICKLE1 (UniProt Q96MT3).
T1 sequence: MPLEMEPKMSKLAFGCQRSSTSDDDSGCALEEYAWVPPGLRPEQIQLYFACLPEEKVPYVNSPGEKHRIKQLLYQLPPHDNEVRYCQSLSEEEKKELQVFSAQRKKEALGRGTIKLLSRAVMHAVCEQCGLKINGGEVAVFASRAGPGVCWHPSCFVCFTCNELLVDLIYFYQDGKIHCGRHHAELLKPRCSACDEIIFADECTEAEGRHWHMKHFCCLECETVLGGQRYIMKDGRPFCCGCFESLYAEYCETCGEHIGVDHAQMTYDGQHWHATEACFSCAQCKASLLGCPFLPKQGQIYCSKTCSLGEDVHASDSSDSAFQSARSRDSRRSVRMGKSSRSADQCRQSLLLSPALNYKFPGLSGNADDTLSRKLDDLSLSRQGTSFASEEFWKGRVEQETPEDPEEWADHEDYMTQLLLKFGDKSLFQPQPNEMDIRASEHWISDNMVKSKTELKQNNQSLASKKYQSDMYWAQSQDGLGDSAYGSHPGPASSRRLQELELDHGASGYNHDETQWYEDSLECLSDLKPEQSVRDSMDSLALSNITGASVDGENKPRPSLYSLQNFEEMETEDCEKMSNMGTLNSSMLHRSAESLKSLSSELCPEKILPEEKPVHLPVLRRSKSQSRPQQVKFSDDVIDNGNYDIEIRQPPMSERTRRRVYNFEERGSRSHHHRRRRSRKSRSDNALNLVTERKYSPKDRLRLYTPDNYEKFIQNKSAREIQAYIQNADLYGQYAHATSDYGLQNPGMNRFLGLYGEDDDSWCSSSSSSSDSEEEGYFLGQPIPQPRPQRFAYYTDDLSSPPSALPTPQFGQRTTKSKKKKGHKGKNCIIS
Nature of the experiment: co-IP.

With GFP-LL5α (from UniProt Q86UU1 1-1377), the binding entry is given as “no binding”.

The values above are taken from doi:10.1101/2021.09.02.458712.
